Source: paper PMC12017883

By UniProt entry, the sequences of proteins in these tests, tags left out. Where a name states a change or a piece, a line headed by the entry shows the natural chain unless it says otherwise.
UniProt P00441: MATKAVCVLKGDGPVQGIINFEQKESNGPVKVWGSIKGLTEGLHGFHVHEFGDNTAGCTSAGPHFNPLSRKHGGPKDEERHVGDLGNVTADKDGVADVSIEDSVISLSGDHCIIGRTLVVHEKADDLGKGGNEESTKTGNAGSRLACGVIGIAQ

B1: Nop2 (protein, UniProt Q922K7 1-793)
chain: MGRKLDPTKKEKRGPGRKARKQKGAETELVRFLPAAGDENSKRLSSRARKRAAKRRAGSVDVPKPNKSPGIKTLPGELSKGAVQARGKKRPAPIQNSDGDEEEDSGEDDVVTQGDLWGSEDSDEDMVDDYGAASNSEDEEEKLLPIERAALKQKAQDATAGVLWNEEDTDEDEDDDGVSPESHPRKDDKAEGDLQINVEDEEAFVLPPAGETDQDGQAPDLQRVHKRIQDIVGVLRDFGAQREEGRSRAEYLSRLQKDLATYYSYGDFLLSKLMELFPLSELIEFLEANEVPRPITLRTNTLKTRRRDLAQLLINRGVNLDPLGKWSKSGLVVYDSSVPIGATPEYLAGHYMLQGASSMLPVMALAPQEHERILDMCCAPGGKTSYIAQLMKNTGVILANDANADRLKSVVGNLHRLGVTNTIISHYDGRQFPKVVGGFDRVLLDAPCSGTGVISKDPAVKTNKDEKDIQRCAHLQKELLLSAIDSVNAASKTGGYLVYCTCSITVEENEWVVDYALKKRNVRLVPTGLDFGQEGFTRFQARRFHPTLRSTRRFYPHTHNMDGFFIAKFKKFSNSIPQPHAGNSAAATPTEPDLKDQVTPKSENGSQPTKKARGAVKAKQQLLRQPHSKKPFQKLNGIAKGPGLSTEPSVPDAQVSTRPSQSAGNADVNSKRKRSEKLKQRGPKWKPSKEAAVPKPSAPSRVEDSGTPVPTPSEIRAAPRPKDCAPSLGKAKKKQKGKQQLAQQPANGAAPLKEDAVSKGPSAPFVSPHSSTRPPPAKRRKSMTKGNSQPLLS
B2: Prpf3 (protein, UniProt Q922U1 1-683)
chain: MALSKRELDELKPWIEKTVKRVLGFSEPTVVTAALNCVGKGMDKKKAADHLKPFLDDSTLRFVDKLFEAVEEGRSSRHSKSSSDRSRKRELKEVFGDDSEISKESSGVKKRRIPRFEEVEEEPEVIPGPPSESPGMLTKLQIKQMMEAATRQIEERKKQLSFISPPAPQPKTPSSSQPERLPIGNTIQPSQAATFMNDAIEKARKAAELQARIQAQLALKPGLIGNANMVGLANLHAMGIAPPKVELKDQTKPTPLILDEQGRTVDATGKEVELTHRMPTLKANIRAVKREQFKQQLKEKPSEDMESNTFFDPRVSIAPSQRQRRTFKFHDKGKFEKIAQRLRTKAQLEKLQAEISQAARKTGIHTSTRLALIAPKKELKEGDIPEIEWWDSYIIPNGFDLTEENPKREDYFGITNLVEHPAQLNPPVDNDTPVTLGVYLTKKEQKKLRRQTRREAQKELQEKVRLGLTPPPEPKVRISNLMRVLGTEAVQDPTKVEAHVRAQMAKRQKAHEEANAARKLTAEQRKVKKIKKLKEDISQGVHISVYRVRNLSNPAKKFKIEANAGQLYLTGVVVLHKDVNVVVVEGGPKAQKKFKRLMLHRIKWDEQTSNTKGDDDEESDEEAVKKTNKCVLVWEGTAKDRSFGEMKFKQCPTENMAREHFKKHGAEHYWDLALSESVLESTD
B3: Sfpq (protein, UniProt Q8VIJ6 1-699)
chain: MSRDRFRSRGGGGGGFHRRGGGGGRGGLHDFRSPPPGMGLNQNRGPMGPGPGGPKPPLPPPPPHQQQQQPPPQQPPPQQPPPHQQPPPHQPPHQQPPPPPQESKPVVPQGPGSAPGVSSAPPPAVSAPPANPPTTGAPPGPGPTPTPPPAVPSTAPGPPPPSTPSSGVSTTPPQTGGPPPPPAGGAGPGPKPGPGPGGPKGGKMPGGPKPGGGPGMGAPGGHPKPPHRGGGEPRGGRQHHAPYHQQHHQGPPPGGPGPRTEEKISDSEGFKANLSLLRRPGEKTYTQRCRLFVGNLPADITEDEFKRLFAKYGEPGEVFINKGKGFGFIKLESRALAEIAKAELDDTPMRGRQLRVRFATHAAALSVRNLSPYVSNELLEEAFSQFGPIERAVVIVDDRGRSTGKGIVEFASKPAARKAFERCSEGVFLLTTTPRPVIVEPLEQLDDEDGLPEKLAQKNPMYQKERETPPRFAQHGTFEYEYSQRWKSLDEMEKQQREQVEKNMKDAKDKLESEMEDAYHEHQANLLRQDLMRRQEELRRMEELHSQEMQKRKEMQLRQEEERRRREEEMMIRQREMEEQMRRQREESYSRMGYMDPRERDMRMGGGGTMNMGDPYGSGGQKFPPLGGGGGIGYEANPGVPPATMSGSMMGSDMRTERFGQGGAGPVGGQGPRGMGPGTPAGYGRGREEYEGPNKKPRF
B4: Pgam5 (protein, UniProt Q8BX10 1-288)
chain: MAFRQALQLAACGLAGGSAAVLFSAVAVGKPRGGGDADTRATEPPAWTGARAGRGVWDTNWDRREPLSLINLKKRNVESGEDELTSRLDHYKAKATRHIFLIRHSQYHVDGSLEKDRTLTPLGREQAELTGLRLASLGLKFNKIVHSSMTRAVETTDIISKHLPGVSRVSTDLLREGAPIEPDPPVSHWKPEAVQYYEDGARIEAAFRNYIHRADARQEEDSYEIFICHANVIRYIVCRALQFPPEGWLRLSLNNGSITHLVIRPNGRVALRTLGDTGFMPPDKITRS
B5: Serine palmitoyltransferase 1 (protein, UniProt O35704 1-473)
chain: MATVAEQWVLVEMVQALYEAPAYHLILEGILILWIIRLVFSKTYKLQERSDLTAKEKEELIEEWQPEPLVPPVSKNHPALNYNIVSGPPTHNIVVNGKECVNFASFNFLGLLANPRVKATAFSSLKKYGVGTCGPRGFYGTFDVHLDLEERLAKFMKTEEAIIYSYGFSTIASAIPAYSKRGDIIFVDSAACFAIQKGLQASRSDIKLFKHNDVADLERLLKEQEIEDQKNPRKARVTRRFIVVEGLYMNTGTICPLPELVKLKYKYKARIFLEESLSFGVLGEHGRGVTEHYGISIDDIDLISANMENALASVGGFCCGRSFVVDHQRLSGQGYCFSASLPPLLAAAAIEALNIMEENPDIFAVLKKKCQNIHKSLQGVSGLKVVGESLSPALHLQLEESTGSREKDVKLLQAIVDQCMDKGIALTQARYLDKEEKCLPPPSIRVVVTVEQTEEELQRAASTIREAAQAVLL
B6: Nufip2 (protein, UniProt Q5F2E7 1-692)
chain: MEEKPGQPQPQHHHSHHHPHHHPQQQQQQQSHHHHHYYFYNHSHNHHHHHHHQQPHQYLQHGAEGSPKAQPKPLKHEQKHTLQQHQETPKKKTGYGEINGNAGEREISLKSLSSDEATNPISRVLNGNQQVVETSLKQTVKTSTFGKAGIKTKNFIQKNSMDKKNGKSYENKSGETQAVDKTDTIAIPNGVITSSSGYITNGYMSKGADNDGSGSESGYTTPKKRKARRNSAKGCENLNLVQDKIMQETSVPALKQGLETLKPDYSEQKGMRVDGSKPIWKYETGPGGTSRGKPAMGDVLRKSSDIKPGLSSKKFDDRPKGKHASAAASKEDSWTLFKPPPVFPVDNSSAKIVPKISYASKVKENLNKTVQNSSVSPSSSSSSSSTGETQTQSSSRLSQVPMSALKSVTSASFSNGPVLAGTDGSVYPSGGQPLLTTAANTLTPISTGTDSVLQDMSLASAAVEQIKSSLFIYPSNMQTVLLSAQVDLPSQTDQQNLGDIFQNQWGLSFINEPSAGPETVIGKSSDHKVMEVTFQGEYPATLVSQGAEIIPSGTEHPVFPKAYELEKRTSPQVLGHILKPGTTESGALSLDPSHIGDLQKADTSSQGALVFLSKDYEIENQNPLASPTNTLLGSAKEQRYQRGLERNDSWGSFDLRAAIVYHTKEMESIWNLQKQDPKRIITYNEAMDSPDQ
B7: nuclear RNA export factor 1 (protein, UniProt Q99JX7 1-618)
chain: MADEGKSYNEHDDRVSFPQRRKKGRGPFRWKCGEGNRRSGRGGSGVQSSRFEEDDGDVAMNDPQDGPRVRYNPYTNRPNRRGDGWHDRDRIHITVRRDRAPAERGGAGTSQDGTTKNWFKITIPYGRKYDKTWLLSMIQSKCSVPFNPIEFHYENTRAHFFVEDATTASALKGVNHKIQDRENRRISIIINASAPPYTVQNELKPEQIEQLKLIMSKRYDGNQQALDLKGLRSDPDLVAQNIDVVLNRRSCMAATLRIIEENIPELLSLNLSSNRLYKLDDMSSIVQKAPNLKTLNLSGNELKTERELDKIKGLKLEELWLDRNPMCDNFGDQSSYISAIRERFPKLLRLDGHELPPPISFDVEAPTMLPPCKGSYFGTENLKSLVLRFLQQYYVIYDSGDRQGLLYAYHDGACCSLSIPYNPQNPVRKNLAEYVKDSRNVKKLKEPTQRFRLLKHTRLNVVAFLNELPKTQHDVNAFVVDISAQTSTLLCFSVNGVFKEVDGKSRDSLRAFTRTFIAVPASNSGLCIVNDELFVRNASPEEIQRAFAMSAPTPSSSPVPTLSPEQQEMLQAFSTQSGMNLEWSQKCLQDNNWDYTRSAQAFTLLKAKGEIPEVAFMK
B8: Serbp1 (protein, UniProt Q9CY58 1-407)
chain: MPGHLQEGFGCVVTNRFDQLFDDESDPFEVLKAAENKKKEAGGGGVGGPGAKSAAQAAAQTNSNAAGKQLRKESQKDRKNPLPPSVGVADKKEETQPPVALKKEGIRRVGRRPDQQLQGDGKLIDRRAERRPPRERRFEKPLEEKGEGGEFSVDRPIIERPIRGRGGLGRGRGGRGRGMGRGDGFDSRGKREFDRHSGSDRSSFSHYSGLKHEDKRGGSGSHNWGTVKDELTESPKYIQKQISYNCSDLDQSNVTEETPEGEEHPVADTENKENEVEEVKEEGPKEMTLDEWKAIQNKDRAKVEFNIRKPNEGADGQWKKGFVLHKSKSEEAHAEDSVMDHHFRKPANDITSQLEINFGDLGRPGRGGRGGRGGRGRGGRPNRGSRTDKSSASAPDVDDPEAFPALA
B9: Sart1 (protein, UniProt Q9Z315 1-806)
chain: MGSSKKHRGEKEAAGTTAAAGTGGTTEQPPRHREHKKHKHRSSGGGSSGGERRKRSRERGSERGSGRRGAEAEARSGAHGRERSQAEPSERRVKREKRDDGYEAAASSKASSGDASSLSIEETNKLRAKLGLKPLEVNAVKKEAGTKEEPVAADVINPMALRQREELREKLAAAKEKRLLNQKLGKIKTLGEDDPWLDDTAAWIERSRQLQKEKDLAEKRAKLLEEMDQEFGVSTLVEEEFEQRRQDLYSARDLQGLTVEHAIDSFREGETVVLTLKDKGVLQDGEDVLVNVNMVDKERADKNVELRKKKPDYLPYAEDESVDDLAQQKPRSILAKYDEELEGERPHSFRLEQGGMADGLRERELEEIRTKLRLQAQSLSSVGPRLASEYLSPEEMVTFKKTKRRVKKIRKKEKEVIMRADDLLPLGDQTQDGDFGSRLRGRGRRRVPEVEEEALEDEEKDPVAQPPPSDDTRVENMDISDEEDGGALPPGSPEGLEEDEAELELQKQLEKGRRLRQLQQLQQLRDSGEKVLEIVKKLESRQRGWEEEEDPERKGTIVFNATSEFCRTLGEIPTYGLAGNREEQEELMDFERDEERSANGGSESDGEENIGWSTVNLDEEKQHQDFSASSTTILDEEPIVNRGLAAALLLCQNKGLLETTVQKVARVKAPNKSLPSAVYCIEDKMAIDDKYSRREEYRGFTQDFKEKDGYKPDVKIEYVDETGRKLTPKEAFRQLSHRFHGKGSGKMKTERRMKKLDEEALLKKMSSSDTPLGTVALLQEKQKAQKTPYIVLSGSGKSMNANTITK

Biological target: human mtSOD1-L126delTT with a FLAG sequence at the C terminus (human) (UniProt P00441)
Assay: affinity purification with mass spectrometry; anti-FLAG M2 IP (5 ug antibody, protein A/G magnetic beads) from the nuclear fraction of DF7 cells (500 ug total protein); control IP with monoclonal mouse IgG (MOPC 21); DIA proteomics; hits: log2 FC >= 2 over control or missing in the control IP

Binder	binding
B1	binds
B2	binds
B3	binds
B4	binds
B5	binds
B6	binds
B7	binds
B8	binds
B9	binds

Results are given in words; binding and its absence hold for the method and conditions named. Binding seen in cells or lysates may run through a third protein. These calls come from enrichment with a bait or labelling near it, and not all partners need be listed.
